Results from US9809625B2 (BRISTOL-MYERS SQUIBB COMPANY, priority 2015, dated 2017).
For some of these results: Some peptides are written in HELM: one residue between dots, names in brackets for other building blocks, links after the first $.

How the values were obtained:
[1] = general procedure: Fmoc solid-phase peptide synthesis; 2-chlorotrityl resin; HATU/DIPEA; conditions: whole synthesis, scale 0.8 mmol
[2] = general procedure: Fmoc solid-phase peptide synthesis; Rink resin; HATU/DIPEA; conditions: whole synthesis; for final LC-MS purity: LCMS analysis
[3] = solid-phase peptide synthesis; conditions: late stage modification step, LCMS analysis
[4] = scale 0.20 mmol scale (2×0.1 mmol)

Substance: ClAc-Tyr-[N-Me]Ala-Asn-Pro-Ser-Gln-Hyp-Trp-Ser-Trp-[N-Me]Nle-[N-Me]Nle-Leu-Cys-Gly
- final LC-MS purity ([1]; LCMS analysis): 97%
- isolated mass [1]: 29.3 mg

Substance: ClAc-Tyr-mAla-Asn-Pro-Dap-Leu-Hyp-Trp-Gly-Trp-mNle-mNle-Leu-Cys-Sar
- final LC-MS purity ([2]; scale 0.2 mmol): 95%
- isolated mass ([2]; scale 0.2 mmol): 36.4 mg

Substance: ClAc-Tyr-mAla-Asn-Pro-Dap-Leu-Hyp-Trp-Gly-Trp-mNle-mNle-Leu-Cys-Sarc
- final LC-MS purity [2, 4]: 95%
- isolated mass [2, 4]: 36.4 mg

Substance: PEPTIDE1{[CH2CO].Y.[NMeAla].N.P.[Dap].L.[Hyp].W.G.W.[NMeNle].[NMeNle].L.C.G.[NH-Pr-morpholine]}$PEPTIDE1,PEPTIDE1,1:R3-15:R3$$$V2.0
- final LC-MS purity [3]: 94%

Substance: PEPTIDE1{[CH2CO].Y.[NMeAla].N.P.[Dap].L.[Hyp].W.G.W.[NMeNle].[NMeNle].L.C.G.[NHEtOPh]}$PEPTIDE1,PEPTIDE1,1:R3-15:R3$$$V2.0
- final LC-MS purity [3]: 92%

Substance: PEPTIDE1{[CH2CO].Y.[NMeAla].N.P.[Dap].L.[Hyp].W.G.W.[NMeNle].[NMeNle].L.C.G.[NHPrN(EtOH)2]}$PEPTIDE1,PEPTIDE1,1:R3-15:R3$$$V2.0
- final LC-MS purity [3]: 100%

Substance: PEPTIDE1{[CH2CO].Y.[NMeAla].N.P.[Dap].L.[Hyp].W.G.W.[NMeNle].[NMeNle].L.C.G.[NHcBu]}$PEPTIDE1,PEPTIDE1,1:R3-15:R3$$$V2.0
- final LC-MS purity [3]: 95%
